# Experiments:
# [1] = tested on: platelet poor citrated plasma; experiment: Prothrombin time (PT) test; format: biochemical, human; details: drug sample 3000 mg/L; for PT: equal volume with plasma, 5 min at 37°C
# Procedure: (§1) PT and aPTT tests were carried out simultaneously. Blood samples from three healthy volunteers were collected in sodium citrated blood tubes (Vacutainer, BD). Blood samples were then centrifuged for 15 min at 1500 rpm to prepare platelet poor citrated plasma. The LABiTec (Germany) apparatus was used for the determination of PT and aPTT. Equal volumes of drug samples (3000 mg/L) and platelet-depleted plasma were incubated for 5 min at 37°C. The PT test was performed as follows: a 100 μl of tissue thromboplastin (HUMAN) was added to 50 μl of prewarmed mixture, and clotting time was measured. For the aPTT test, 50 μl of rabbit brain extract was added to equal volume of the prewarmed platelet poor plasma-extract mixture incubated for 1 minute after which 50 μl of 0.025 M calcium chloride (HUMAN) was added and clotting time was measured; PBS was used as control.
# [2] = tested on: platelet poor citrated plasma; experiment: Activated partial thromboplastin time (aPTT) test; format: biochemical, human; details: drug sample 3000 mg/L; for aPTT: equal volume with plasma, 5 min at 37°C
# Procedure: as §1
structure (smiles),measurement,setting,value
COc1ccc2cc([C@H](C)C(=O)O)ccc2c1 [Naproxen],PT Average ± SD,[1]; average of three volunteers,22.3 ± 4.36 s
same,PT,[1]; volunteer 1,20 s
same,PT,[1]; volunteer 2,19.5 s
same,PT,[1]; volunteer 3,27.3 s
same,aPTT Average ± SD,[2]; average of three volunteers,66.4 ± 0.9 s
same,aPTT,[2]; volunteer 1,67.4 s
same,aPTT,[2]; volunteer 2,66.2 s
same,aPTT,[2]; volunteer 3,65.5 s
